PubChem BioAssay AID1159584 | Peter MacCallum Cancer Centre, 2016
This is an unselected part of about 18,000 reagents. Not stated in the record: the amount of reagent, the time to read-out.

Screen: 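Knock-downs that harm CDH1-null cells more than parental MCF10A cells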 (primary screen)
Cells: human MCF10A breast epithelial cells, parental and CDH1-null
Reagents: siRNA against human genes
Read-out: 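Cell viability by CellTiter-Glo ATP luminescence, each line scaled to the mean of mock wells across plates, then CDH1-null over parental ratio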
Direction: CDH1-null / parental viability ratio: higher = CDH1-null cells survive relatively better than parental; CDH1-null viability vs mock: higher = more viable CDH1-null cells; parental viability vs mock: higher = more viable parental cells

gene knocked down	CDH1-null / parental viability ratio	CDH1-null viability vs mock (fraction of mock)	parental viability vs mock (fraction of mock)
OVCH1	1.4	0.84	0.6
RNF146	0.85	0.66	0.78
AKR1B15	1.15	1.06	0.92
MPP1	1.2	1.01	0.84
TMEM61	0.93	0.54	0.58
STING1	0.69	0.35	0.51
LSM14B	0.9	0.72	0.8
CFAP298	1.08	1.19	1.1
M6PR	1.06	0.92	0.87
WFIKKN1	0.89	0.62	0.7
CALCR	1.29	0.93	0.72
CDH9	0.89	0.64	0.72
DIO3	0.84	0.61	0.73
FOXP4	1.25	0.4	0.32
MAP3K5	1.02	0.88	0.86
SLF1	1.12	0.57	0.51
SPATA2L	1.11	0.39	0.35
RIPK3	1.02	0.98	0.96
MBD3L1	1.16	0.88	0.76
METTL25B	0.87	0.76	0.87
UNC13C	0.97	0.56	0.58
PRUNE1	1.09	1.02	0.94
KLHL25	0.96	0.72	0.75
ZBED1	1.21	0.8	0.66
HMMR	1.21	0.94	0.78
VPS18	0.87	0.7	0.8
TULP1	0.95	0.99	1.04
LDHAL6B	1.06	0.87	0.82
PAPOLG	0.94	0.89	0.95
TTC4	0.95	0.8	0.84
RPS3A	1.29	0.22	0.17
PEX3	1.07	0.77	0.72
CTCFL	1.14	1.03	0.9
RBP7	0.9	0.78	0.87
KIF25	1.38	1.1	0.8
FAN1	0.82	0.65	0.79
ZBED8L	0.94	0.79	0.84
RNLS	1.03	0.8	0.78
ZNF398	0.99	0.92	0.93
CGN	1.22	0.93	0.76
NPHP1	1.09	0.75	0.69
RSPO3	0.86	0.55	0.64
SLX1A	1.03	0.6	0.58
LOX	1.02	1.1	1.08
RPL28	1.03	0.8	0.78
CDC37	0.68	0.41	0.6
UPK3A	0.62	0.28	0.45
TMEM31	1.24	1.02	0.82
THAP10	1.66	0.96	0.58
TRARG1	1.04	0.76	0.73
SSB	0.83	0.48	0.58
GALNT7	1.1	1.03	0.94
ENG	1.12	0.96	0.86
CCR6	0.77	0.78	1.01
POLR1A	1.14	0.73	0.64
PLBD1	1.16	0.57	0.49
CHFR	0.84	0.84	1
DSCR10	1.04	0.78	0.75
AFTPH	0.83	0.48	0.58
KCNAB3	1.14	1.05	0.92
ARL11	1.05	0.86	0.82
TBCB	1.01	0.85	0.84
ZNF696	1.02	1.01	0.99
IL9R	0.9	0.52	0.58
TMEM87B	0.79	0.74	0.94
SDAD1	1.15	0.6	0.52
FXR2	1.12	0.82	0.73
SLC44A5	0.75	0.84	1.12

Reformatted: results already given.
gene knocked down,CDH1-null / parental viability ratio,CDH1-null viability vs mock (fraction of mock),parental viability vs mock (fraction of mock)
TULP1,0.95,0.99,1.04
LDHAL6B,1.06,0.87,0.82
PAPOLG,0.94,0.89,0.95
